## Percent effect of library compounds

Sequences of proteins named here, by UniProt entry; tags and fusion partners are left off. Residues count along the entry.
UniProt Q4DA54, 1-478: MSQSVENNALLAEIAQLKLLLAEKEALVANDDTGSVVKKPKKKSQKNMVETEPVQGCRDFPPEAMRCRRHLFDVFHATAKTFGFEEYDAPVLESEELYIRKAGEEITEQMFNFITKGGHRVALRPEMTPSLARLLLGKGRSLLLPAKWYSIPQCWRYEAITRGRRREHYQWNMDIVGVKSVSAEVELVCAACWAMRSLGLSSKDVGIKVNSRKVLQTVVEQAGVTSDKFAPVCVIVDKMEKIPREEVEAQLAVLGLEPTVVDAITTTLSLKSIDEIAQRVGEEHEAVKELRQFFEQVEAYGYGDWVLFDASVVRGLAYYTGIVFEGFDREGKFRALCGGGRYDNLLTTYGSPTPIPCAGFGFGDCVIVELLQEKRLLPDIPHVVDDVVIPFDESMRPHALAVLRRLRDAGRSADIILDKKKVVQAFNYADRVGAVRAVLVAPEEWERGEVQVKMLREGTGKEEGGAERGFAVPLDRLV
UniProt P9WPC5, whole entry: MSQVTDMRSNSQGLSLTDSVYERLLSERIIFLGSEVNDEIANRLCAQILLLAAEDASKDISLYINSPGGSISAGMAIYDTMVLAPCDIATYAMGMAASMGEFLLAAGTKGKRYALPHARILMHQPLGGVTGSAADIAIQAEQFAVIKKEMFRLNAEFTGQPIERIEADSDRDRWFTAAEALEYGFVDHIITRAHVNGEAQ
UniProt P9WPC3, whole entry partner: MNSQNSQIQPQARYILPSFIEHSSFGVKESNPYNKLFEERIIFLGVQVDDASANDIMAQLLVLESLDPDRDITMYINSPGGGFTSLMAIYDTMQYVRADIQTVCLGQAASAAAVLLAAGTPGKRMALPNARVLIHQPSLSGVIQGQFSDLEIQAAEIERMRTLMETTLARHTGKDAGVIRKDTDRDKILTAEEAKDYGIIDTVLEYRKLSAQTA
UniProt Q8IDJ8, 1-583: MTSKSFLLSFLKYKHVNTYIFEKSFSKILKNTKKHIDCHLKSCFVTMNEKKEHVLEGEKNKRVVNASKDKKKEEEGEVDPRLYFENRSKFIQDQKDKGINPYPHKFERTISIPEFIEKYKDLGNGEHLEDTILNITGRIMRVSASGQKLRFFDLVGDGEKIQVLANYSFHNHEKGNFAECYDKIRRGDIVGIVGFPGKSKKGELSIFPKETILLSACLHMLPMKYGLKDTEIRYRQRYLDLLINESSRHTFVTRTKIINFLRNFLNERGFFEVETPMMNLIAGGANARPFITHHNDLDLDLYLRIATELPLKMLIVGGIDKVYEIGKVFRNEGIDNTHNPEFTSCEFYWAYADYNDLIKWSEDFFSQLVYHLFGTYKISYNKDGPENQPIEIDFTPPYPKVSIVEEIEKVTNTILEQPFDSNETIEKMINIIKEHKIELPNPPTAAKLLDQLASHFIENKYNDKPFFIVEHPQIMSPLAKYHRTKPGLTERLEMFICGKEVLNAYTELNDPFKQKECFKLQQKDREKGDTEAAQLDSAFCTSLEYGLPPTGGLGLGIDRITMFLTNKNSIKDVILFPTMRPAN
UniProt A4I591, 1-473: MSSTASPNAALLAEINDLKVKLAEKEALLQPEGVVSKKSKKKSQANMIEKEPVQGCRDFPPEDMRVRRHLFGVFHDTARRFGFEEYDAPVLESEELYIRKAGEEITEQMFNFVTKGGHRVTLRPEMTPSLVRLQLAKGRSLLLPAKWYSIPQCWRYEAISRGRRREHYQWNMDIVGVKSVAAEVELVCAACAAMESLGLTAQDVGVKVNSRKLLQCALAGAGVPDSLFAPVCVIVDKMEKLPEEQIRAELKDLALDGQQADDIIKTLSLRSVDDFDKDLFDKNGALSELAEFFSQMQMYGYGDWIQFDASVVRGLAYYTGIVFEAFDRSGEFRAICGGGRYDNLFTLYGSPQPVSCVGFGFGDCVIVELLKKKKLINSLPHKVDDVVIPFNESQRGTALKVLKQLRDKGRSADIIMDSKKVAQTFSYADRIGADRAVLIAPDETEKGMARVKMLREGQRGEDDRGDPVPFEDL

From ChEMBL document CHEMBL3988442, “University of Dundee, Small-Polar-MMV Screening Library” (2021).

Results are given as percent effect. The record does not define 0% and 100%; most values in the screen are far below 50% and negative numbers occur (in some assays of this library far below -100). Compounds were drawn at random from those tested, without regard to their results.

A: 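Histidine-tRNA ligase, Trypanosoma cruzi CL Brener (UniProt Q4DA54). Enzyme assay of histidyl-tRNA synthetase; the read-out is not stated. Tested at 30 µM. Higher reads as stronger inhibition (inferred: compounds with an IC50 in retests scored well above the rest). Size under these conditions: about 69,000 compounds, about 31 of them at 50% or above in at least one test.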
B: 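Protease assay of ClpP1P2, read by the AMC dye that it sets free. Target: ClpP1P2, Mycobacterium tuberculosis (UniProt P9WPC5 and UniProt P9WPC3). Compounds at 50 µM. Higher reads as stronger inhibition, judged from the few compounds that gave an IC50. Most other retested compounds had strongly negative values. Of about 69,000 compounds tested this way, about 10 (0.015%) reached 50% or more in at least one test.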
C: 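Enzyme assay of the cytosolic lysyl-tRNA synthetase in 384-well plates, read by luminescence. Target: Lysine-tRNA ligase, Plasmodium falciparum 3D7 (UniProt Q8IDJ8). Compounds at 30 µM. Direction is inferred from only a few compounds that gave an IC50; most scored high, so higher reads as stronger inhibition. About 69,000 compounds were tested under these conditions; 0.071% (about 49) showed 50% or more at least once.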
D: 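Histidine-tRNA ligase, Leishmania infantum (UniProt A4I591). Enzyme assay of histidyl-tRNA synthetase; the read-out is not stated. Concentration: 30 µM. The record gives no direction; compounds that gave an IC50 in retests scored well above the rest, so higher reads as stronger inhibition. The assay is labelled LdHisRS but filed under L. infantum. Of about 69,000 compounds tested this way, about 410 (0.6%) reached 50% or more in at least one test.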

structure,A,B,C,D
Cc1ccc(CN2CCC(c3nnc(CN4CCCCC4)n3C)CC2)o1,4.132%,-14.13%,6.169%,7.619%
c1ccc(-c2nc(CNC3CCc4ncnn4C3)cs2)cc1 (stereo not drawn),7.331%,-19.92%,1.158%,13.89%
CC(C)(CNC(=O)c1ccco1)CNC(=O)c1ccco1,0%,-1.985%,2.656%,3.922%
CN(C)C(=O)N1C[C@@H]2CC[C@H](C1)N(Cc1nnc(C3CC3)o1)C2,6.931%,7.087%,1.647%,14.29%
CN1C[C@H](COCC2CC2)[C@H]2CCN(Cc3ccco3)CC[C@H]2C1=O,6.329%,0.7656%,-1.052%,13.79%
COc1ccc(N2CCN(C(=O)Cn3nc(C)c(C)c3C)C(C)C2)cc1 (stereo not drawn),4.046%,19.77%,0%,9.333%
COc1ccc(OCc2nc3cc4c(cc3c(=O)o2)OCCCO4)cc1,7.407%,4.344%,5.151%,-7.843%
CC(Cn1cnc2cn(C)nc2c1=O)Oc1cccnc1 (stereo not drawn),6.329%,-4.167%,2.589%,18.75%
CC(C)Oc1nnc(SCC(=O)NCC(=O)N2CCCC2)s1,6.349%,4.27%,11.11%,16.44%
O=C(NC1CCCC1)c1cc(Sc2ncccn2)ccn1,7.772%,-1.492%,2.972%,10.11%
Cc1cnn(CCNCC(=O)NC(c2ccccc2)c2ccccc2)c1,19.71%,-9.919%,2.93%,29.27%
CN(C)C(C(=O)N1CCN(S(N)(=O)=O)CC1)c1ccccc1F (stereo not drawn),1.058%,-3.651%,2.502%,-3.03%
CC(C)c1nc(CN2CCOC(Cn3cncn3)C2)cs1 (stereo not drawn),7.514%,-25.52%,0.4119%,16.96%
C[C@@H]1CN(S(=O)(=O)N2CCOCC2)C[C@@]1(O)C1CC1,1.622%,-17.63%,1.798%,6.838%
CC(=O)N1CCN(CCNc2ncc(Br)cc2C)CC1,0.5618%,2.344%,1.118%,17.95%
Cc1nnc(CN2CCN(CCOc3ccccc3C#N)CC2)n1C,0%,-2.811%,8.761%,16.67%
CC(=O)N1CCC(n2ccc(-c3cnc(NCC(C)C)nc3)n2)CC1,18.08%,-5.394%,4.579%,25.71%
Cc1nc2c(c(NC(C)C)n1)CCN(C(=O)c1ccno1)CC2,2.674%,1.983%,2.476%,16.24%
CC(O)CN1CCN(C(=O)c2cnn(-c3ccc(Cl)cc3)c2)CC1 (stereo not drawn),1.245%,-8.239%,1.557%,18.45%
Cc1ccc(C(NC(=O)Cc2nc3ncccn3n2)C2CC2)cc1 (stereo not drawn),5.882%,-0.9362%,5.823%,17.54%
CCOc1ccc2nc(CN3CCC(CN)C3)ccc2c1 (stereo not drawn),40.43%,0.9191%,5.61%,52.24%
O=c1c(CN2CCCCCC2)coc(O)c1CN1CCCCCC1,10.89%,5.868%,9.034%,21.74%
Cn1cnc2c1C(COCC1CCOCC1)CN(Cc1ccccn1)C2 (stereo not drawn),4.926%,-3.834%,2.972%,14.71%
N#CCCN1CCC(=Cc2ccccc2)CC1,5.952%,-13.54%,4.585%,8.889%
CCOc1ccc(NC(=O)c2cnc(N3CCCC3)nc2C)cc1,-1.087%,1.214%,-0.3804%,12.62%
Cc1ccc(C(=O)N2CCC3(CC2)CC(c2ccccc2)C(=O)N3)cn1 (stereo not drawn),2.703%,9.838%,-0.4983%,11.32%
Cc1cnn(CC2CCCCN2C(=O)Cc2csc(C)n2)c1 (stereo not drawn),2.632%,-5.825%,-0.7501%,5.405%
CCN(CC)C(=O)c1ccc(COc2ccccc2C#N)o1,-8.152%,-1.238%,4.152%,8%
CCOCC(O)CN1CCN(C(=O)c2ccsc2)CC1 (stereo not drawn),5.911%,-1.56%,-1.871%,4.11%
COc1ccc(CN2C[C@@H]3COC[C@]3(CN(C)C)C2)cc1,-0.5464%,6.421%,-2.921%,17.65%
Cc1noc2ncc(S(=O)(=O)N3CCCC(C)(C)CC3)cc12,4.124%,-3.444%,3.264%,23.08%
OC(CNCCn1cccn1)c1ccc(F)c(F)c1 (stereo not drawn),-0.3774%,15.04%,0.01196%,20.27%
Cc1nc(C)c(CN2CCOC(CN(C)c3cccnn3)C2)s1 (stereo not drawn),5.882%,6.013%,4.073%,3.306%
Cc1cc(C2CCCN(C(=O)CCc3cscn3)C2)n[nH]1 (stereo not drawn),5.714%,0.5014%,3.195%,23.08%
O=C(c1cc2c([nH]c1=O)CCC2)N1CCCC1c1ccccn1 (stereo not drawn),1.087%,2.786%,2.544%,18.18%
O=C1CC(c2ccncc2)C2(CCN(C(=O)NC3CC3)CC2)N1 (stereo not drawn),9.677%,-1.673%,4.523%,8.772%
COCC(=O)N1CCC2(CC1)CCn1c(-c3cccc(OC)c3)cnc12,2.454%,-6.279%,-3.448%,3.419%
O=c1cc(CN2C[C@H]3CC[C@@H]2CN(Cc2ccccc2)C3)[nH]c(=O)[nH]1,4.891%,-10.53%,0.1471%,5.333%
CC(=O)NCCNC(=O)CN1CCOC(Cn2cccn2)C1 (stereo not drawn),6.122%,-4.668%,1.131%,14.68%
C[C@H](NC(=O)c1cccc(CCC(C)(C)O)c1)C(N)=O,-0.9662%,-16.72%,0.4965%,12.5%
Cc1ccc(Cl)cc1N1CCC(CNC(=O)CCn2ccnc2)C1 (stereo not drawn),9.16%,-15.7%,4.384%,40.43%
Cc1cnn(CC2CN(CC(=O)Nc3ccnn3C(C)C)CCO2)c1 (stereo not drawn),2.254%,1.042%,3.424%,11.3%
CCC1CN(C(=O)c2cccc(O)c2)CCC(=O)N1Cc1ccccc1 (stereo not drawn),4.082%,-1.342%,4.753%,17.74%
Cc1ccc(CN(Cc2ccccn2)C2CC(C)(C)NC(C)(C)C2)s1,1.622%,-7.999%,4.157%,8.333%
CN1CCN(c2nc(-c3cnn(C)c3)cs2)CC1,13.76%,-9.524%,-0.5597%,21.21%
OC1(CN2CCCC2)COCCN(c2nccs2)C1 (stereo not drawn),10.59%,7.354%,1.816%,13.49%
COc1ccccc1C(C)CC(=O)N1CCN(S(N)(=O)=O)CC1 (stereo not drawn),1.149%,3.397%,-0.2193%,17.95%
COc1ccccc1OCCC(=O)N1CCCCC1c1nccs1 (stereo not drawn),4.36%,-25.21%,0.5999%,11.4%
Cc1nnn2c1COC(CNCc1ccccn1)C2 (stereo not drawn),7.527%,-4.199%,2.667%,17.54%
CC1CCN(Cc2cnc(S(=O)(=O)CC3CC3)n2CC2CCCO2)CC1 (stereo not drawn),8.943%,-9.573%,-4.796%,-2.885%
CCN(Cc1cn(CC2CCNCC2)nn1)CC1CCCO1 (stereo not drawn),-0.8696%,-14.19%,-2.533%,0%
COc1ccc(NC(=O)N2CCCCCC2c2ccncc2)cn1 (stereo not drawn),4.202%,-12.18%,11.86%,9.917%
CN(C)c1nc(NCc2ccccc2Cn2cccn2)ncc1F,1.031%,10.68%,1.533%,14.29%
Cc1nc(C(=O)N2CCCN(Cc3cnn(C)c3)CC2)ccc1C#N,3.226%,-25.65%,-0.3681%,2.778%
Cc1ncccc1OC1(C(=O)NCCC2CCCN2C)CCNCC1 (stereo not drawn),-2.326%,0.757%,-0.7453%,14.75%
CCc1cc(NCC(O)CN2CCCCC2)ncn1 (stereo not drawn),0.4292%,-12.82%,3.559%,6.557%
Cc1cc(C)n(CC2CN(CC(=O)N3CCNC3=O)CCO2)n1 (stereo not drawn),4.023%,2.781%,-0.9094%,8.696%
CC(=O)N(CCC(=O)NC1(C#N)CCC1)Cc1ccccc1,-2.299%,-12.62%,-1.372%,-1.613%

Some entries from above, unchanged:

| structure | A | B | C | D |
|---|---|---|---|---|
| `Cc1noc2ncc(S(=O)(=O)N3CCCC(C)(C)CC3)cc12` | 4.124% | -3.444% | 3.264% | 23.08% |
| `Cc1cnn(CC2CN(CC(=O)Nc3ccnn3C(C)C)CCO2)c1` (stereo not drawn) | 2.254% | 1.042% | 3.424% | 11.3% |
| `COc1ccccc1OCCC(=O)N1CCCCC1c1nccs1` (stereo not drawn) | 4.36% | -25.21% | 0.5999% | 11.4% |
| `CC1CCN(Cc2cnc(S(=O)(=O)CC3CC3)n2CC2CCCO2)CC1` (stereo not drawn) | 8.943% | -9.573% | -4.796% | -2.885% |
| `COc1ccc(CN2C[C@@H]3COC[C@]3(CN(C)C)C2)cc1` | -0.5464% | 6.421% | -2.921% | 17.65% |
| `Cc1ccc(CN(Cc2ccccn2)C2CC(C)(C)NC(C)(C)C2)s1` | 1.622% | -7.999% | 4.157% | 8.333% |
| `Cc1nc(C(=O)N2CCCN(Cc3cnn(C)c3)CC2)ccc1C#N` | 3.226% | -25.65% | -0.3681% | 2.778% |